Several values for one entry are separate records, joined by “and”; a condition that tells them apart may be missing. Equal entries are not always repeated. This is one part of the list. Single values are uncertain here, since repeats match poorly.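 HEK293T cells were given each compound shortly before transfection with a reporter in which red mCherry is followed by the SARS-CoV-2 frameshift element and then GFP in the −1 frame, so GFP appears only after frameshifting.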

The subject of the first experiment is SARS-CoV-2 -1 PRF reporter mCherry-FSE-GFP(-1). The experiment in a line: mCherry (red) intensity as percent of control; higher = higher upstream reporter expression. The note with it: 10 µM; 24 h; HEK293T.
For the molecule `CCc1ccc(CCOc2ccc(CC3SC(=O)NC3=O)cc2)nc1` (stereo not given) [Pioglitazone], the mCherry worked out at 106%.
Regarding `CC(C)CCCC(C)NCCC(C)C` (stereo not given) [octamylamine], the mCherry was 88.1%.
Same read-out and setting: the result for `CC1=C(C)C(=O)C(C(CCCCCC(=O)O)c2ccccc2)=C(C)C1=O` (stereo not given) [seratrodast] reads 103%.
Same read-out and setting: next, `CC1=C(/C=C/C(C)=C/C=C/C(C)=C\C(=O)O)C(C)(C)CCC1` [isotretionin]: 106%.
Still for that read-out and setting: the result for `C[C@@H](O)[C@H]1C(=O)N2C(C(=O)O)=C(SCCN=CN)C[C@H]12` reads 95.4%; that for `OCC(O)C(O)C(O)C(O)CO` (stereo not given), 105%.
Take `CCC(=O)O[C@]1(C(=O)CCl)[C@@H](C)C[C@H]2[C@@H]3CCC4=CC(=O)C=C[C@]4(C)[C@@]3(F)[C@@H](O)C[C@@]21C` [Clobetasol Propionate]: the mCherry worked out at 222%.
Still for that read-out and setting: the result for `Cc1c(Nc2ncccc2C(=O)O)cccc1C(F)(F)F` reads 80.6%.
The same measure, in the same setting: the result for `O=C(O)CCNC(=O)c1ccc(/N=N/c2ccc(O)c(C(=O)O)c2)cc1` reads 85.5%.
Turning to `CC(=O)c1ccc2c(c1)N(CCCN1CCN(CCO)CC1)c1ccccc1S2`, the mCherry was 104%.
Same read-out and setting: the result for `CC(=O)CCCCn1c(=O)c2c(ncn2C)n(C)c1=O` [pentoxifylline] reads 83.5% and 72.8%.
`O=C(O)c1cc(O)c2c3nc4ccccc4oc-3cc(=O)c2n1` [pirenoxine] showed a mCherry of 95.3%.
In turn, `O=C(Oc1cccc2cccnc12)c1ccccc1` [benzoxiquine] returned a mCherry of 105%.
Same read-out and setting: the result for `[N-]=[N+]=NCC(=O)N[C@H](CO)[C@H](O)c1ccc([N+](=O)[O-])cc1` [azidamfenicol] reads 104%; that for `OCC(O)CN1CCN(c2ccccc2)CC1` (stereo not given) [dropropizine], 96.1%; that for `N/N=c1\[nH][nH]/c(=N\N)c2ccccc12` [dihydralazine], 149%.
Same read-out and setting: next, `CCC[C@@H]1C[C@@H](C(=O)N[C@@H]([C@H]2O[C@H](SC)[C@H](O)[C@@H](O)[C@H]2O)[C@H](C)Cl)N(C)C1` [Clindamycin]: 123%; `CC(=O)Nc1ccc(OC(=O)c2ccccc2O)cc1` [acetaminosalol]: 101%; `O=C([O-])c1ccccc1[O-].[Bi+3].[OH-]`: 68.6%.
The same measure, in the same setting: the result for `CC(C)=CCC/C(C)=C/CC/C(C)=C/CSc1ccccc1C(=O)O` [salirasib] reads 103%; that for `COc1ccc(Cc2cnc(N)nc2N)cc1OC` [diaveridine], 80.4%; that for `C[N+]1(C)CCC(=C(c2ccccc2)c2ccccc2)CC1` [diphemanil metilsulfate], 110%.
`C=C(c1ccc(C(=O)O)cc1)c1cc2c(cc1C)C(C)(C)CCC2(C)C` [bexarotene] showed a mCherry of 93.3%.
Same read-out and setting: the result for `CO[C@H]1C[C@@H]2CC[C@@H](C)[C@@](O)(O2)C(=O)C(=O)N2CCCC[C@H]2C(=O)O[C@H]([C@H](C)C[C@@H]2CC[C@@H](O)[C@H](OC)C2)CC(=O)[C@H](C)/C=C(\C)[C@@H](O)[C@@H](OC)C(=O)[C@H](C)C[C@H](C)/C=C/C=C/C=C/1C` [Sirolimus] reads 102%.
Still for that read-out and setting: the result for `CC(C)NCC(O)COc1ccc(CCOCC2CC2)cc1` (stereo not given) [betaxolol] reads 99.7%; that for `CCCCC[C@H](O)/C=C/[C@@H]1[C@@H](C/C=C\CCCC(=O)O)[C@@H](O)C[C@H]1O` [Dinoprost], 76.4%; that for `CC1(C)S[C@@H]2[C@H](N3C(=O)[C@@H](c4ccccc4)NC3(C)C)C(=O)N2[C@H]1C(=O)O` [Hetacillin], 103%.
Take `C(=C(C1CCCCC1)C1CCCCC1)C1CCCCN1` (stereo not given) [hexadiline]: the mCherry was found to be 78.8%.
Same read-out and setting: next, `CC(Cc1ccccc1)NN` (stereo not given) [pheniprazine]: 77.2%; `CN(C)C(=O)Cn1cc(-c2nc([C@@](C)(c3ccc(-c4cnc(N)nc4)cc3)C3CC3)no2)cn1`: 76.8%; `O=C1NCN(c2ccccc2)C12CCN(CCCC(c1ccc(F)cc1)c1ccc(F)cc1)CC2` [fluspirilene]: 104%.
Still for that read-out and setting: the result for `OC[C@@H](O)[C@@H](O)[C@H](O)[C@H](O)CO` [Bronchitol] reads 135%.
Take `CN(C)C(=N)NC(=N)N`: the mCherry stood at 54%.
Regarding `CCCCOC(=O)c1ccc(O)cc1`, the mCherry turned out to be 128%.
On the same count and under the same terms, next, `CO/N=C(\C(=O)N[C@@H]1C(=O)N2C(C(=O)OCOC(=O)C(C)(C)C)=C(/C=C\c3scnc3C)CS[C@H]12)c1csc(N)n1`: 139%; `CN[C@@H]1[C@H](O[C@H]2[C@H](O[C@H]3[C@H](O)[C@@H](O)[C@H](N=C(N)N)[C@@H](O)[C@@H]3N=C(N)N)O[C@@H](C)[C@]2(O)C=O)O[C@@H](CO)[C@H](O)[C@H]1O` [streptomycin]: 104%.
Still for that read-out and setting: next, `Cn1nnnc1SCC1=C(C(=O)O)N2C(=O)[C@@H](NC(=O)[C@H](O)c3ccccc3)[C@H]2SC1`: 86.9%; `CC1OC2(CS1)CN1CCC2CC1` (stereo not given) [Evoxac]: 115%.
Still for that read-out and setting: the result for `CC(=O)Nc1c(I)c(NC(C)=O)c(I)c(C(=O)O)c1I` reads 135%.
As for `COc1ncnc(NS(=O)(=O)c2ccc(N)cc2)c1OC` [sulfadoxine], the mCherry is 92.5% and 72.9%.

A further experiment shares this test system. The experiment can be described thus: percent effect, decrease of GFP/mCherry ratio (-1 PRF reporter) relative to controls; higher = stronger frameshift inhibition. The note with it: 10 µM; 24 h; HEK293T.
In the case of `CCc1ccc(CCOc2ccc(CC3SC(=O)NC3=O)cc2)nc1` (stereo not given) [Pioglitazone], the percent effect worked out at 2.64%.
On the same count and under the same terms, the result for `CC(C)CCCC(C)NCCC(C)C` (stereo not given) [octamylamine] reads -1.32%; that for `CC1=C(C)C(=O)C(C(CCCCCC(=O)O)c2ccccc2)=C(C)C1=O` (stereo not given) [seratrodast], -7.5%.
On the same count and under the same terms, next, `CC1=C(/C=C/C(C)=C/C=C/C(C)=C\C(=O)O)C(C)(C)CCC1` [isotretionin]: -4.13%; `C[C@@H](O)[C@H]1C(=O)N2C(C(=O)O)=C(SCCN=CN)C[C@H]12`: -5.04%; `OCC(O)C(O)C(O)C(O)CO` (stereo not given): 0.393%.
Same read-out and setting: next, `CCC(=O)O[C@]1(C(=O)CCl)[C@@H](C)C[C@H]2[C@@H]3CCC4=CC(=O)C=C[C@]4(C)[C@@]3(F)[C@@H](O)C[C@@]21C` [Clobetasol Propionate]: -2.3%.
In the case of `Cc1c(Nc2ncccc2C(=O)O)cccc1C(F)(F)F`, the percent effect is -3.77%.
The same measure, in the same setting: next, `O=C(O)CCNC(=O)c1ccc(/N=N/c2ccc(O)c(C(=O)O)c2)cc1`: -1.3%; `CC(=O)c1ccc2c(c1)N(CCCN1CCN(CCO)CC1)c1ccccc1S2`: -0.613%.
Same read-out and setting: next, `CC(=O)CCCCn1c(=O)c2c(ncn2C)n(C)c1=O` [pentoxifylline]: -2.9% and -3.95%; `O=C(O)c1cc(O)c2c3nc4ccccc4oc-3cc(=O)c2n1` [pirenoxine]: -5.28%.
The same measure, in the same setting: next, `O=C(Oc1cccc2cccnc12)c1ccccc1` [benzoxiquine]: -0.996%; `[N-]=[N+]=NCC(=O)N[C@H](CO)[C@H](O)c1ccc([N+](=O)[O-])cc1` [azidamfenicol]: -4.21%.
As to `OCC(O)CN1CCN(c2ccccc2)CC1` (stereo not given) [dropropizine], the percent effect was -1.28%.
On the same count and under the same terms, next, `N/N=c1\[nH][nH]/c(=N\N)c2ccccc12` [dihydralazine]: -2.37%; `CCC[C@@H]1C[C@@H](C(=O)N[C@@H]([C@H]2O[C@H](SC)[C@H](O)[C@@H](O)[C@H]2O)[C@H](C)Cl)N(C)C1` [Clindamycin]: -1.7%; `CC(=O)Nc1ccc(OC(=O)c2ccccc2O)cc1` [acetaminosalol]: -1.93%.
As to `O=C([O-])c1ccccc1[O-].[Bi+3].[OH-]`, the percent effect was -2.31%.
The same measure, in the same setting: next, `CC(C)=CCC/C(C)=C/CC/C(C)=C/CSc1ccccc1C(=O)O` [salirasib]: -0.961%.
Same read-out and setting: the result for `COc1ccc(Cc2cnc(N)nc2N)cc1OC` [diaveridine] reads -1.66%; that for `C[N+]1(C)CCC(=C(c2ccccc2)c2ccccc2)CC1` [diphemanil metilsulfate], 0.435%; that for `C=C(c1ccc(C(=O)O)cc1)c1cc2c(cc1C)C(C)(C)CCC2(C)C` [bexarotene], -3.41%.
For `CO[C@H]1C[C@@H]2CC[C@@H](C)[C@@](O)(O2)C(=O)C(=O)N2CCCC[C@H]2C(=O)O[C@H]([C@H](C)C[C@@H]2CC[C@@H](O)[C@H](OC)C2)CC(=O)[C@H](C)/C=C(\C)[C@@H](O)[C@@H](OC)C(=O)[C@H](C)C[C@H](C)/C=C/C=C/C=C/1C` [Sirolimus], the percent effect was determined as 1.99%.
Consider `CC(C)NCC(O)COc1ccc(CCOCC2CC2)cc1` (stereo not given) [betaxolol], for which the percent effect is -3.15%.
Still for that read-out and setting: next, `CCCCC[C@H](O)/C=C/[C@@H]1[C@@H](C/C=C\CCCC(=O)O)[C@@H](O)C[C@H]1O` [Dinoprost]: 1.71%.
Turning to `CC1(C)S[C@@H]2[C@H](N3C(=O)[C@@H](c4ccccc4)NC3(C)C)C(=O)N2[C@H]1C(=O)O` [Hetacillin], the percent effect is -1.71%.
On to `C(=C(C1CCCCC1)C1CCCCC1)C1CCCCN1` (stereo not given) [hexadiline], for which the percent effect was determined as 0.134%.
On the same count and under the same terms, the result for `CC(Cc1ccccc1)NN` (stereo not given) [pheniprazine] reads -9.62%; that for `CN(C)C(=O)Cn1cc(-c2nc([C@@](C)(c3ccc(-c4cnc(N)nc4)cc3)C3CC3)no2)cn1`, -2.53%.
Still for that read-out and setting: next, `O=C1NCN(c2ccccc2)C12CCN(CCCC(c1ccc(F)cc1)c1ccc(F)cc1)CC2` [fluspirilene]: -2.34%; `OC[C@@H](O)[C@@H](O)[C@H](O)[C@H](O)CO` [Bronchitol]: -7.64%; `CN(C)C(=N)NC(=N)N`: -2.12%.
Still for that read-out and setting: next, `CCCCOC(=O)c1ccc(O)cc1`: -11.8%.
Consider `CO/N=C(\C(=O)N[C@@H]1C(=O)N2C(C(=O)OCOC(=O)C(C)(C)C)=C(/C=C\c3scnc3C)CS[C@H]12)c1csc(N)n1`, for which the percent effect worked out at 1.75%.
Same read-out and setting: the result for `CN[C@@H]1[C@H](O[C@H]2[C@H](O[C@H]3[C@H](O)[C@@H](O)[C@H](N=C(N)N)[C@@H](O)[C@@H]3N=C(N)N)O[C@@H](C)[C@]2(O)C=O)O[C@@H](CO)[C@H](O)[C@H]1O` [streptomycin] reads -1.23%; that for `Cn1nnnc1SCC1=C(C(=O)O)N2C(=O)[C@@H](NC(=O)[C@H](O)c3ccccc3)[C@H]2SC1`, -4.7%.
Same read-out and setting: next, `CC1OC2(CS1)CN1CCC2CC1` (stereo not given) [Evoxac]: -3.37%; `CC(=O)Nc1c(I)c(NC(C)=O)c(I)c(C(=O)O)c1I`: 0.552%.
Consider `COc1ncnc(NS(=O)(=O)c2ccc(N)cc2)c1OC` [sulfadoxine], for which the percent effect was 1.11% and 1.69%.

The record behind these values is the supplement of paper PMC8256030.
